The values that follow come from article PMC2755476, “The Sam domain of the lipid phosphatase Ship2 adopts a common model to interact with Arap3-Sam and EphA2-Sam” (BMC Structural Biology, 2009).

Amino acid sequences for entries named in this document (tags omitted). Residues count along the entry.
UniProt P29317, residues 904-968: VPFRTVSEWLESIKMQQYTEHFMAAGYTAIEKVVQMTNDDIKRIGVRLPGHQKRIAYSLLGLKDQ

Results are given in words; binding and its absence hold for the method and conditions named. Some binding calls cover weakened binding; strength is not graded here.

This experiment concerns the target Sam domain of the Ephrin A2 receptor (EphA2-Sam) (UniProt P29317). The experiment is described as follows: NMR titration; 2D [1H,15N]-HSQC displacement experiment; 15N EphA2-Sam, then unlabeled Ship2-Sam, then unlabeled Arap3-Sam; final ratio EphA2-Sam/Ship2-Sam/Arap3-Sam 1:1.8:3.2; both purified.

B1: Sam domain of Ship2 (Src homology 2 domain-containing phosphoinositide-5-phosphatase 2) (domain or fragment, UniProt O15357 1194-1258)
chain: SGLGEAGMSAWLRAIGLERYEEGLVHNGWDDLEFLSDITEEDLEEAGVQDPAHKRLLLDTLQLSK
Take B1: the binding entry is on record as “binds”.
